Assay results from US20230416248A1, “COMPOUNDS AND USES THEREOF” (Foghorn Therapeutics Inc., priority 2020, published 2023).
Structures were worked out from names or drawings and are uncertain.

Sequences of proteins named here, by UniProt entry; tags and fusion partners are left off.
UniProt P51531, whole entry: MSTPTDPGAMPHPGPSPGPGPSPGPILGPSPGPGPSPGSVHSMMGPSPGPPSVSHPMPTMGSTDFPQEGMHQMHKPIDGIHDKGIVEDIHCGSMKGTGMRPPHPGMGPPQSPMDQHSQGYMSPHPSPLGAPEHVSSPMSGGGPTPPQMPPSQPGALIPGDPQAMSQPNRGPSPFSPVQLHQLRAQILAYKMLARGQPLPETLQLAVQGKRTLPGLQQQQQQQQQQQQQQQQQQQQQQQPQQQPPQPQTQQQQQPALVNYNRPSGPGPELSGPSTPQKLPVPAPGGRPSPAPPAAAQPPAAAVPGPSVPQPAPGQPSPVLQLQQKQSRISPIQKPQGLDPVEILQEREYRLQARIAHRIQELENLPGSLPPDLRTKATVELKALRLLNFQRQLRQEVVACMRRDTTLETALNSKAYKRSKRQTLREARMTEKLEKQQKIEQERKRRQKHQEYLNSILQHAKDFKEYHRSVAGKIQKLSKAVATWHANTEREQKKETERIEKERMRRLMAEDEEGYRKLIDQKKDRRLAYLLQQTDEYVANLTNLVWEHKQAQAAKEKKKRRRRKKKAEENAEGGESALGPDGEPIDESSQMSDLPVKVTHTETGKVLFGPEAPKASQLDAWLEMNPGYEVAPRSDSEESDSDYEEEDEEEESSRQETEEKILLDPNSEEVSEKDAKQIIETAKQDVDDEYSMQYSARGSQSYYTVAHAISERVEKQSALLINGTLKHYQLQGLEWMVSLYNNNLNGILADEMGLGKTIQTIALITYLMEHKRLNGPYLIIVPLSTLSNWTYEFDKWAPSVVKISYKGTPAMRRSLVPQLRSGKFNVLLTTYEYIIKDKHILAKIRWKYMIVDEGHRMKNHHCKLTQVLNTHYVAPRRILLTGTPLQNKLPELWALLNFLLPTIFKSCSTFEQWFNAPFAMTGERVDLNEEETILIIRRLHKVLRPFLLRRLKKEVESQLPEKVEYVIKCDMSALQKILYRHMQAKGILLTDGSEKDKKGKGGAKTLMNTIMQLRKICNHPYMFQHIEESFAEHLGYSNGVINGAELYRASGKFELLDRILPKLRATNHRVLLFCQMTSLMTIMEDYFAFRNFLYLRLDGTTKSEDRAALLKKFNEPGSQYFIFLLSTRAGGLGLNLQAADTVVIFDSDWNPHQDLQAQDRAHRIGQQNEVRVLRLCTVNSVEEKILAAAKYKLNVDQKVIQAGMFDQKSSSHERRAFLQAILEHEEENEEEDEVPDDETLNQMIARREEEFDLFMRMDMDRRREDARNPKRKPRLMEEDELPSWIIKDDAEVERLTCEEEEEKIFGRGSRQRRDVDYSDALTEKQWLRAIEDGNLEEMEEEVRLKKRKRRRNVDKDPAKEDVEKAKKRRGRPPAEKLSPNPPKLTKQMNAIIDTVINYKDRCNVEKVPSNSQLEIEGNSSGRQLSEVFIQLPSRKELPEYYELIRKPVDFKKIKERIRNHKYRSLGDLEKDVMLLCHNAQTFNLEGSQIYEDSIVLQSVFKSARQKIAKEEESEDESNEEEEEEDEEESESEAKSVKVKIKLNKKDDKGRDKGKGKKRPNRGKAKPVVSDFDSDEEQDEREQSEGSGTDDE
UniProt P51532, whole entry: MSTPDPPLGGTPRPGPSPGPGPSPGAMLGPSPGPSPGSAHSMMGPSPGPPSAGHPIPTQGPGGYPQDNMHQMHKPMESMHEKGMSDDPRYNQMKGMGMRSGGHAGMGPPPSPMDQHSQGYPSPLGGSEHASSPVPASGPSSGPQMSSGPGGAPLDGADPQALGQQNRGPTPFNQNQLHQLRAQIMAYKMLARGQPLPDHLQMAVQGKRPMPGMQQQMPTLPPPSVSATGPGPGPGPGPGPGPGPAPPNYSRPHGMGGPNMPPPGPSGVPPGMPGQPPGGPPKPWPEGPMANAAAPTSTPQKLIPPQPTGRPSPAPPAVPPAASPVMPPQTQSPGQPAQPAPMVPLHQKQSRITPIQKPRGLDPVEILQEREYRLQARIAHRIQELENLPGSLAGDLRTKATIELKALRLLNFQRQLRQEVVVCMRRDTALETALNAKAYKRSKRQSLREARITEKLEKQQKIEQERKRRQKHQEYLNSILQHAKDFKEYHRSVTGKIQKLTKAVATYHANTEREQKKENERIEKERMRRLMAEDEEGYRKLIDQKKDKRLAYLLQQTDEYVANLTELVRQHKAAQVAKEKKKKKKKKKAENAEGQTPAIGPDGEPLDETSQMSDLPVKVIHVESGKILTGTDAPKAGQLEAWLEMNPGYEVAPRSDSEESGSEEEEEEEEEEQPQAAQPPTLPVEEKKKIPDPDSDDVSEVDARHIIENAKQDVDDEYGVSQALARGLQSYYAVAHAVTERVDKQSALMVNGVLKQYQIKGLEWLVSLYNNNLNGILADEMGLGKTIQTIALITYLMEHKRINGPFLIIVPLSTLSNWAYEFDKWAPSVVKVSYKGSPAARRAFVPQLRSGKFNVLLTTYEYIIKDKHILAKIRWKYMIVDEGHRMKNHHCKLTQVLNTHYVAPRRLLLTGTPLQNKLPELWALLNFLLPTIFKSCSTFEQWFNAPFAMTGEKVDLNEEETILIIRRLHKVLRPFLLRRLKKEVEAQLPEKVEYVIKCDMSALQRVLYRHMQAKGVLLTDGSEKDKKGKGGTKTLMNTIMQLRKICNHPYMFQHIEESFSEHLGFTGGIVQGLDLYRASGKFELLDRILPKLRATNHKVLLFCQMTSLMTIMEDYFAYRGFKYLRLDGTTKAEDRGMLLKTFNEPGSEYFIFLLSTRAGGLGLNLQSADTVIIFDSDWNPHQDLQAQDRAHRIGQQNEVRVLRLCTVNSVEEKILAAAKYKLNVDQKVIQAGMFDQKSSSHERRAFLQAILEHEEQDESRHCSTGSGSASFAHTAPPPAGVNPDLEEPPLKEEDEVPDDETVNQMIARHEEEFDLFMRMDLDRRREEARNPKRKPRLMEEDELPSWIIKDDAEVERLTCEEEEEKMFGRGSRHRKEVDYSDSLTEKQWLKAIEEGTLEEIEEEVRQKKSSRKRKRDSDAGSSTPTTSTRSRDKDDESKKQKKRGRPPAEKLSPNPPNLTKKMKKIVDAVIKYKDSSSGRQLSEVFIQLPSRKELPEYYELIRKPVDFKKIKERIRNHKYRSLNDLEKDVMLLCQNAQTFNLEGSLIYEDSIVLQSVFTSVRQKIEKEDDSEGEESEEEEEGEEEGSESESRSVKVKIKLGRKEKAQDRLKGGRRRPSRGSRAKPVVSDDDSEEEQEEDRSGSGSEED

Columns and labels:
BRM = BRM (Homo sapiens, UniProt P51531); experiment: ATPase catalytic activity of BRM, ADP-Glo in vitro biochemical assay; conditions: for IC50: read-out: BRM IC50, ADP-Glo ATPase assay, 30 nM BRM, 400 μM ATP; for Ratio* (BRG1 IC50 (μM) divided by BRM IC50 (μM)): selectivity ratio BRG1 IC50 / BRM IC50
BRG-1 = BRG-1 (Homo sapiens, UniProt P51532); experiment: ATPase catalytic activity of BRG-1, ADP-Glo in vitro biochemical assay; conditions: read-out: BRG1 IC50, 30 nM BRG-1, 400 μM ATP

SMILES | IC50 (BRM) [nM] | Ratio* (BRG1 IC50 (μM) divided by BRM IC50 (μM)) (BRM) | IC50 (BRG-1) [nM]
O=C(NCc1cc2nc(-c3cccc(N4CCC4)c3)ccc2cn1)c1cnc2c(c1)S(=O)(=O)CCOC2 | 101 | 10.44 | 1060
O=C(NCc1cc2nc(-c3ccccc3)ccc2cn1)c1ccc2c(c1)S(=O)(=O)CCOC2 | 267 | 6.32 | 1690
CN1CCOc2c(-c3ccc4cnc(CNC(=O)c5ccc6c(c5)S(=O)(=O)CCOC6)cc4n3)cccc21 | 50.4 | 9.15 | 461

Now those with a lower IC50 (BRM), led by results:

IC50 (BRM) [nM] | Ratio* (BRG1 IC50 (μM) divided by BRM IC50 (μM)) (BRM) | IC50 (BRG-1) [nM] | SMILES
35.4 | 7.38 | 262 | CN1CCOc2ccc(-c3ccc4cnc(CNC(=O)c5ccc6c(c5)S(=O)(=O)CCOC6)cc4n3)cc21
9 | 3.83 | 34.5 | C[C@@H]1CN(c2cccc(-c3ccc4cnc(CNC(=O)c5cc(F)c6c(c5)S(=O)(=O)[C@@H](C)COC6)cc4n3)n2)C[C@H](C)O1
4 | 5.17 | 20.7 | C[C@@H]1CN(c2cccc(-c3ccc4cnc(CNC(=O)c5ccc6c(c5)S(=O)(=O)COCC6)cc4n3)n2)C[C@H](C)O1
